# The inconclusive results got no clear call from the source; some entries with a clear call stand among them for comparison. For some of these results: A potency beside an inconclusive call is a rough fit, not a confirmed value. Active and inactive are the calls of the source. Unless noted, calls come from the whole dose curve; as a rule, active = well fitted curve in the direction sought with a large enough effect; inconclusive = small, poorly fitted or top-dose-only effect, or another doubt; inactive = no such curve, though single readings can be large; an effect the other way counts as inactive or inconclusive.
# Amino acid sequences for entries named in this document (tags omitted). A change or cut given only in a name is not applied to a line headed by its entry.
# UniProt A8B2U2: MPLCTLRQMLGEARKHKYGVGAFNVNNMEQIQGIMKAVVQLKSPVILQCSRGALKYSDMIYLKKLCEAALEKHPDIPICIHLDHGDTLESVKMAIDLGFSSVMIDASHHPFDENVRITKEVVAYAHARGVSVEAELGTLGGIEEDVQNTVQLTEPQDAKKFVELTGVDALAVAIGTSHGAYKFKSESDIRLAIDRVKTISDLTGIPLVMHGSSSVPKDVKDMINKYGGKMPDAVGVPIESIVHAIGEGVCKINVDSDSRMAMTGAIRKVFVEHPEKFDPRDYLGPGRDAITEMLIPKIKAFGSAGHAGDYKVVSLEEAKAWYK
# UniProt P00883: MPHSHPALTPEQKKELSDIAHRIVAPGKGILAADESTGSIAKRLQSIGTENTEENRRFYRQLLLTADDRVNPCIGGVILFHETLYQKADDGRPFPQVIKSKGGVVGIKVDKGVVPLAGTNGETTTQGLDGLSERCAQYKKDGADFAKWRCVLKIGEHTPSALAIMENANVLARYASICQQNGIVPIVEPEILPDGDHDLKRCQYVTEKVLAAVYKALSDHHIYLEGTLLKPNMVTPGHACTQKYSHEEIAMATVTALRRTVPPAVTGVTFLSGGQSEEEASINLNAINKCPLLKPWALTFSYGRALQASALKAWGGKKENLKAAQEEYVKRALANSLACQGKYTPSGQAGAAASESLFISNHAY
# UniProt O89049, whole entry, looked up: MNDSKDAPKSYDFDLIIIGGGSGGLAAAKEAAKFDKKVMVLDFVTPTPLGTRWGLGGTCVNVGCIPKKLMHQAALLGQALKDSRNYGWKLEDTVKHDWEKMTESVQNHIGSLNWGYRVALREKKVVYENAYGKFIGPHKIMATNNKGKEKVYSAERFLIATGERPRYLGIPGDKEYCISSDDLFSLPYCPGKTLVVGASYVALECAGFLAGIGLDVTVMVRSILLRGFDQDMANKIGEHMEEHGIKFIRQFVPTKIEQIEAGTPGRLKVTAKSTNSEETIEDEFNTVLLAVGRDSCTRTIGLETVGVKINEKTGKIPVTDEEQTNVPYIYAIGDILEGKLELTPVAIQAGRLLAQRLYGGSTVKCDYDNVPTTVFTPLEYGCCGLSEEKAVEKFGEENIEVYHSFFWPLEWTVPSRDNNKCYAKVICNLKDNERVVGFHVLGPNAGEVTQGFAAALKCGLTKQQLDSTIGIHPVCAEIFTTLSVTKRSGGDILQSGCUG
# UniProt O75604: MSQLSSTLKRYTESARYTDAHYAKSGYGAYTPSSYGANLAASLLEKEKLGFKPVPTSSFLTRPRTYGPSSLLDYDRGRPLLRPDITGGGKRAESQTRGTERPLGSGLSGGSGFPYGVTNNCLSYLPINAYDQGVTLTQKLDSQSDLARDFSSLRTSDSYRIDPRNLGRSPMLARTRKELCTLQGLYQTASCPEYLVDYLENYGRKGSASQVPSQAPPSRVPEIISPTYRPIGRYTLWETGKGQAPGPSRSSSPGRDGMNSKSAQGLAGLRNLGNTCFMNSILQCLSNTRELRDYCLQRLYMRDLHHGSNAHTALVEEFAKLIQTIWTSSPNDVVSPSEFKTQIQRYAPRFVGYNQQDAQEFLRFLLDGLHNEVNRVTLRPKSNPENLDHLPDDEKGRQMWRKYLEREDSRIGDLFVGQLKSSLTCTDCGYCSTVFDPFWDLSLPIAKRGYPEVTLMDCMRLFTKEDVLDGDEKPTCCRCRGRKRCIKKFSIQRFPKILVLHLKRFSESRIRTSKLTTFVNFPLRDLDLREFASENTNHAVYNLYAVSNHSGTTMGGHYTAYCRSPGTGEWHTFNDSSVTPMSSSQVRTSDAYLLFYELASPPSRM
# UniProt P13267: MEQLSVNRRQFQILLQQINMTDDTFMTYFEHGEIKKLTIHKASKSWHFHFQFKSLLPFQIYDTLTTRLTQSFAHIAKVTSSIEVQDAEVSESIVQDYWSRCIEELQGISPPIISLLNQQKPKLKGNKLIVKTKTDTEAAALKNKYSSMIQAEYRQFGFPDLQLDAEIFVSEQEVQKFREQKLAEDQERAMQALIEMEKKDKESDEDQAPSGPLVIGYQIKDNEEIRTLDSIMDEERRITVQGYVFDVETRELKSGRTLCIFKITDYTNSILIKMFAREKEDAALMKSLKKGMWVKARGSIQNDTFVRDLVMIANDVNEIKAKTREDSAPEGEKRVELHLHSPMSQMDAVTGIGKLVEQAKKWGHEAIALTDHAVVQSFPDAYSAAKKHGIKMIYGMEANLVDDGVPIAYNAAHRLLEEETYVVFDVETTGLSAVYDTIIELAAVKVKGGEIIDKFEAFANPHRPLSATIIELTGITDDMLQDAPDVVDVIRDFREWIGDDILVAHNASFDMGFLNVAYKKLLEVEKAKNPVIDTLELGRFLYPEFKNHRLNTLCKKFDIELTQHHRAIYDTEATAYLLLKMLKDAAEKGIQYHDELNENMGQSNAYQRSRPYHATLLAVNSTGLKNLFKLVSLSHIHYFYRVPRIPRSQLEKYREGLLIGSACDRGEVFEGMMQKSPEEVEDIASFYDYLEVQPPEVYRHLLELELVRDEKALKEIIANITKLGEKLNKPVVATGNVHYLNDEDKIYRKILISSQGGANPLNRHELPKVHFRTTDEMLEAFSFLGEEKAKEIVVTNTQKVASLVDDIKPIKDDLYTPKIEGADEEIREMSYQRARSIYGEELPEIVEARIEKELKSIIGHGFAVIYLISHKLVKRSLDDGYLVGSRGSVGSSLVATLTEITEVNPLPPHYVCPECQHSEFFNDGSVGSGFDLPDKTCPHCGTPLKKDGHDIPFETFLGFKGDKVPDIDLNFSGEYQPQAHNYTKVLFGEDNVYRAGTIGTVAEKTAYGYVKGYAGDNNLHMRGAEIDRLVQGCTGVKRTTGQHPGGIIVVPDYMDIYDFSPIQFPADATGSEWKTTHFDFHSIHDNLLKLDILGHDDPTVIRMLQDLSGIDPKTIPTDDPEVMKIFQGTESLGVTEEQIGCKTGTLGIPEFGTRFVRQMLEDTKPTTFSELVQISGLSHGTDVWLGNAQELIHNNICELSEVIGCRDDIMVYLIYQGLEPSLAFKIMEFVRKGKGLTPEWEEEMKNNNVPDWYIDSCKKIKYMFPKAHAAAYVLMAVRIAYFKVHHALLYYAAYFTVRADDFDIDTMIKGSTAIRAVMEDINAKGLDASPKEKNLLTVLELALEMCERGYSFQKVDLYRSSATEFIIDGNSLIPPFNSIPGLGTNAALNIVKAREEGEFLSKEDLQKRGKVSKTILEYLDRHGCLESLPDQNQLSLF
# UniProt O15648: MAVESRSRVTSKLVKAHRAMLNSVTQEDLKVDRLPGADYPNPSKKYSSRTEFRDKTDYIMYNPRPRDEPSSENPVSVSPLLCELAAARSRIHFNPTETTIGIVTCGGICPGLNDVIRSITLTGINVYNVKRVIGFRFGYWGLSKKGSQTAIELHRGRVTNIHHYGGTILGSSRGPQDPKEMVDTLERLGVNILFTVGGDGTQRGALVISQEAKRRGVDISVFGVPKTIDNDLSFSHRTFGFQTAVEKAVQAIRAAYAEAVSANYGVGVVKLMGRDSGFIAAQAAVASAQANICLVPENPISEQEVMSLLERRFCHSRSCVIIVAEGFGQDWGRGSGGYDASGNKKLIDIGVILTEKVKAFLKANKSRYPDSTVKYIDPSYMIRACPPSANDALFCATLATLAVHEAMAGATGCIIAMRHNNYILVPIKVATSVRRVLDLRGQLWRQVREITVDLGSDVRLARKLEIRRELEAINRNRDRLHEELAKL
# UniProt P39748, whole entry, looked up: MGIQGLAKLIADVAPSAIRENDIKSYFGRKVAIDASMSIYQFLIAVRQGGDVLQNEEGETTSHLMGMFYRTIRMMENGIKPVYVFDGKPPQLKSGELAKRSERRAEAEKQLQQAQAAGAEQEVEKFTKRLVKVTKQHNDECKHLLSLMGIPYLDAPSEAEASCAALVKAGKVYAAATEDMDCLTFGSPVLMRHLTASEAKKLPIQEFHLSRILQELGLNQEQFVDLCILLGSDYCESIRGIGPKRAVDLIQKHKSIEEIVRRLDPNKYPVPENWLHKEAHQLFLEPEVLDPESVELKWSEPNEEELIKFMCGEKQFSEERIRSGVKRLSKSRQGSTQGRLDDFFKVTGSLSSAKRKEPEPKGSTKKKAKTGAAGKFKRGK
# UniProt Q99549: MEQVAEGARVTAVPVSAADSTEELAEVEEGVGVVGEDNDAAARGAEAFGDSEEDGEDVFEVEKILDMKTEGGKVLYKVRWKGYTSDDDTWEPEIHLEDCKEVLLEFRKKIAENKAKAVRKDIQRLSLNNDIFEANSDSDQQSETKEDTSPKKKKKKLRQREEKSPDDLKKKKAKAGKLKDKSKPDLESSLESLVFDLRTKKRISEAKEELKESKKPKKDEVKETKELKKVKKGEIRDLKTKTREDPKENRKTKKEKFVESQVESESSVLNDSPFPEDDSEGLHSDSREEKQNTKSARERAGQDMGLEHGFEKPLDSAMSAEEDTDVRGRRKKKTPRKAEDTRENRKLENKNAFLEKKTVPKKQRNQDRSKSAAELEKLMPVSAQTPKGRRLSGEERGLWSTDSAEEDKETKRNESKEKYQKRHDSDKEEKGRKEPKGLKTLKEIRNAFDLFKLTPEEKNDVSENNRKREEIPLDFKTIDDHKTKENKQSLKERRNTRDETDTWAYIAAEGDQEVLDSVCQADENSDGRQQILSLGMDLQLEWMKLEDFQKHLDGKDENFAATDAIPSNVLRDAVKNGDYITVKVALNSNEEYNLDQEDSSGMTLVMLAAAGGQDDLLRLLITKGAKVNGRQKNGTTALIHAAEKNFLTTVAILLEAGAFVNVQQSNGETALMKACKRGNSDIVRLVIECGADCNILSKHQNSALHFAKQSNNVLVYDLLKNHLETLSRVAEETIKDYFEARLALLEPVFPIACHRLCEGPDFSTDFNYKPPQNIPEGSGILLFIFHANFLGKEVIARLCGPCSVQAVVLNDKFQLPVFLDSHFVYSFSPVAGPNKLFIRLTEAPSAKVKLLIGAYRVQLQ
# Legend:
# [1] = qHTS Assay for Inhibitors of Fructose-1,6-bisphosphate Aldolase from Giardia Lamblia: Giardia lamblia growth inhibition (AID 2785); note: nearly all actives have a fitted effect of over 70% in size; note: potency is the fitted concentration of half-maximal effect
# In short: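 G. lamblia WB trophozoites (100 cells/well) in modified TYI-S-33 medium, pH 7.0, were exposed to pin-transferred compounds or DMSO for 48 h at 37C in sealed bags. Viability was read as ATPlite luminescence after 20 min at room temperature.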
# [2] = qHTS Assay for Inhibitors of Fructose-1,6-bisphosphate Aldolase from Giardia Lamblia: Mammalian cellular toxicity (AID 2786); details: mammalian cell viability counter-screen;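 note: potency is the fitted concentration of half-maximal effect; compound exposure lasted 48 h before reading; nearly all actives have a fitted effect of over 60% in size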
# In short: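 Chinese hamster ovary cells (250/well, DMEM with 10% FBS and penicillin/streptomycin) were exposed to compounds for 48 h at 37 °C, 5% CO2. Viability was taken as cellular ATP content, read with ATPlite reagent after 20 min.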
# [3] = target: Fructose-bisphosphate aldolase (Giardia intestinalis (strain ATCC 50803 / WB clone C6)) (UniProt A8B2U2); test: qHTS Assay for Inhibitors of Fructose-1,6-bisphosphate Aldolase from Giardia Lamblia: Primary screen confirmation (AID 2787); details: purified Giardia aldolase enzyme activity
# In short: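 Confirmation of primary hits by qHTS up to 57.5 uM final compound. Enzyme at 40 nM with 30 uM ZnCl2, 10 min RT pre-incubation, then substrate/coupling/resorufin-forming detection mix for 20 min before fluorescence read at 525/598 nm.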
# [4] = target: Fructose-bisphosphate aldolase A (Oryctolagus cuniculus) (UniProt P00883); test: qHTS Assay for Inhibitors of Fructose-1,6-bisphosphate Aldolase from Giardia Lamblia: Rabbit FBPA Selectivity (AID 2794); details: Rabbit muscle FBPA enzyme inhibition, selectivity counter-screen
# In short: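 Rabbit Class I FBPA selectivity counterscreen, 1536-well qHTS: compounds at up to 57.5 uM final preincubated 10 min RT with coupling enzyme reagent, then substrate plus coupled enzymes and AmpLite Red added; 20 min RT, fluorescence read at 525/598 nm.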
# [5] = qHTS Assay for Inhibitors of Fructose-1,6-bisphosphate Aldolase from Giardia Lamblia: Coupling assay counterscreen confirmation (AID 2795); details: GAPDH coupling enzyme counterscreen, biochemical
# In short: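 Coupling enzymes were first exposed to test compounds (final up to 57.5 uM) for 10 min at room temperature. A substrate plus coupling-system plus AmpLite Red mixture was then added, and after 20 more minutes fluorescence was measured at 525/598 nm.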
# [6] = target: Thioredoxin reductase 1, cytoplasmic (Rattus norvegicus) (UniProt O89049); test: qHTS Assay for Substrates of Mammalian Selenoprotein Thioredoxin Reductase 1 (TrxR1) (AID 488772);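 note: NADPH fluorescence in the first read after selenite addition and not the 8 min delta; a drop in NADPH fluorescence below the no-compound background marks a TrxR1 substrate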; note: potency is the fitted concentration of half-maximal effect
# In short: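 Quantitative HTS in Tris-HCl buffer at pH 7.5 with EDTA and Tween-20, using rat TrxR1, 400 uM NADPH and 400 uM selenite (final). A fall in initial NADPH fluorescence relative to background marked substrate behaviour.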
# [7] = target: Ubiquitin carboxyl-terminal hydrolase 2 (Homo sapiens) (UniProt O75604); test: qHTS Validation Assay for Inhibitors of Ubiquitin-specific Protease USP2a Using CHOP2 as the Reporter (AID 463106); note: potency is the fitted concentration of half-maximal effect
# In short: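 USP2 core (10nM final) was preincubated with compound for 30min at RT in 20mM Tris-HCl pH 8.0, 2mM CaCl2, 2mM beta-mercaptoethanol, 0.05% CHAPS. Ub-CHOP2 and reporter substrate (25nM each) were added, and fluorescence (Ex 485/Em 531nm) was read after 60min.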
# [8] = Cytometry Cell-Based qHTS for Inhibitors of the mTORC1 Signaling Pathway in MEF cells (AID 2668); note: potency is the fitted concentration of half-maximal effect
# In short: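 Read-out: phospho-rpS6 Ser235/236 immunofluorescence normalized to propidium iodide intensity, scored as % active cells against a rapamycin (7.5 nM) threshold. Cells: Tsc2-/-, p53-/- MEFs stably expressing WT Tsc2, compound-treated 24 hrs at 37 degree Celsius.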
# [9] = Validation screen for small molecules that induce DNA re-replication in MCF 10A normal breast cells (AID 463097); note: nearly all actives have a fitted effect of over 60% in size; note: potency is the fitted concentration of half-maximal effect
# In short: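 250 MCF 10A cells/well; compound pin-transferred; 48 hr, 37 C, 5% CO2; Hoechst 40 min; imaged 405/500-530 nm. Hits = more high-intensity nuclei.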
# [10] = target: DNA polymerase III PolC-type (Bacillus subtilis (strain 168)) (UniProt P13267); test: qHTS Validation Assay for the Inhibitors of DNA Replication in Gram-Positive Bacteria (AID 485295); note: potency is the fitted concentration of half-maximal effect
# In short: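 PicoGreen fluorescence (ex 480–485/em 535–540 nm) reports dsDNA synthesized on ssM13Gori template with dNTPs/NTPs. Enzyme: holoenzyme rebuilt from purified PolC, beta subunit, SSB and primase. Compound preincubated before substrate addition; RT throughout.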
# [11] = target: ATP-dependent 6-phosphofructokinase (Trypanosoma brucei brucei) (UniProt O15648); test: qHTS Validation Assay to Find Inhibitors of T. brucei phosphofructokinase (AID 485368); note: potency is the fitted concentration of half-maximal effect
# In short: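 Activity was read as ADP production by luminescence (ADP-Glo) after 45 min at room temperature. The enzyme was 1.25nM PFK in 0.1M TEA pH 8.0 with 0.5 mM F6P, 0.1mM ATP and 5 mM MgCl2. Compounds were titrated up to 57 uM and % activity normalized to no-enzyme and full-enzyme controls.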
# [12] = Quantitative high throughput screen for delayed death inhibitors of the malarial parasite plastid, 96 hour incubation (AID 488745); note: potency is the fitted concentration of half-maximal effect; nearly all actives have a fitted effect of over 70% in size
# In short: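 Luciferase-expressing P. falciparum in erythrocytes (2% hematocrit, 0.1% parasitemia) incubated with compound for 96 h at 37 C, 5% CO2, in RPMI 1640 with 0.5% Albumax. Growth inhibition read as decreased luminescence.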
# [13] = Quantitative high throughput screen for delayed death inhibitors of the malarial parasite plastid, 48 hour incubation (AID 488752); note: nearly all actives have a fitted effect of over 65% in size; note: potency is the fitted concentration of half-maximal effect
# In short: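 Erythrocytes infected with firefly luciferase-expressing P. falciparum (2% hematocrit, 0.1% parasitemia) cultured with compound for 48 h at 37 C, 5% CO2, in RPMI 1640/0.5% Albumax. Growth inhibition read as loss of luminescence.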
# [14] = target: Thioredoxin reductase 1, cytoplasmic (Rattus norvegicus) (UniProt O89049); test: qHTS Assay for Inhibitors of Mammalian Selenoprotein Thioredoxin Reductase 1 (TrxR1) (AID 488773); details: Potency: inhibition; note: potency is the fitted concentration of half-maximal effect; nearly all actives have a fitted effect of over 40% in size
# In short: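 Steps: enzyme (90 nM) plus NADPH (400 uM final), 5 min at ~22 deg C; compound added, 15 min; selenite (400 uM final) added; fluorescence followed for 8 min. Concentration-response curves derived from the normalized delta values.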
# [15] = High Content Imaging Cell-Based qHTS for Inhibitors of the mTORC1 Signaling Pathway in MEF Cells (AID 2667);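 note: Tsc2-/- p53-/- MEFs stably re-expressing wild-type Tsc2 exposed 24 h; plate controls were DMSO wells for no effect and rapamycin control wells for full effect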
# In short: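 MEF (Tsc2-/-, p53-/-, WT Tsc2 re-expressed); cpd 24 h, 37 °C; PFA fix; Alexa-488 anti-p-rpS6 Ser235/236, PI, Hoechst; IN Cell imaging; Hoechst/Alexa-488 intensity ratio; % active cells, thresholds set from rapamycin and DMSO wells.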
# [16] = qHTS Validation Assay to Find Inhibitors of Chronic Active B-Cell Receptor Signaling (AID 485345; active = well fitted curve in the direction sought with a large enough effect in the main read-out, with a control signal flat, not every such curve was filed as active; inconclusive = small, poorly fitted or top-dose-only effect, or effect the other way, or a change in a side signal; inactive = no such curve, though single readings can be large or run the other way;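 note: 0% = untreated basal cells and 100% = 10 µM MG-132 proteasome inhibitor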); details: ABC-DLBCL cells, chronic BCR signaling reporter; activity change: CBG luciferase, at 46.1 µM (top of the series)
# In short: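 TMD8 ABC-DLBCL cells with dox-inducible green luciferase–IκBα fusion and red native luciferase; compounds 46 uM–3 nM, 4 h at 37C with doxycycline in 0.5% FBS IMDM. Green/red ratio normalized to basal and 10 uM MG-132.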
# [17] = target: Flap endonuclease 1 (Homo sapiens) (UniProt P39748); test: qHTS Validation Assay for the Inhibitors of Human Flap endonuclease 1 (FEN1) (AID 488816); note: potency is the fitted concentration of half-maximal effect
# In short: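 FEN1, dispensed as a 10 nM reagent, was preincubated with pin-transferred compounds for 15 min at room temperature before substrate was added (50 nM final). Plates were read at 0 and 15 min, and a four-parameter Hill equation was fitted to the concentration-response data.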
# [18] = target: M-phase phosphoprotein 8 (Homo sapiens) (UniProt Q99549); test: qHTS Validation Assay for Inhibitors for MPP8 Chromodomain Interactions with Methylated Histone Tails (AID 488949); note: potency is the fitted concentration of half-maximal effect; nearly all actives have a fitted effect of over 55% in size
# In short: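 AlphaScreen read-out: streptavidin donor and nickel chelate acceptor beads (final 10 ug/mL), 30 min in the dark at RT. Complex of 50 nM MPP8 and 50 nM b-H3(1-18)K9me3 peptide had been exposed to compounds for 30 min beforehand.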
structure (smiles),measurement,setting,value
S=C(Nc1ccccc1)Nc1nccs1,Potency,[1],inactive
same,Potency,[2],active: 20 µM
O=C1C(SCCO)=C(SCCO)C(=O)c2ccccc21,Potency,[1],"inconclusive: 39.8 µM [inhibitor, partial curve, poor fit]"
same,Potency,[2],active: 11.2 µM
same,Potency,[3],active: 6.31 µM
same,Potency,[4],"inconclusive: 6.31 µM [inhibitor, full curve]"
same,Potency,[5],active: 3.98 µM
same,Potency,[6],active: 16.8 µM
CC(C)NCC(O)c1ccc(O)c(O)c1 (stereo unspecified),Potency,[3],"inconclusive: 0.316 µM [inhibitor, full curve, poor fit]"
same,Potency,[4],"inconclusive: 0.794 µM [inhibitor, full curve]"
CCN(CC)CCCC(C)Nc1c2ccc(Cl)cc2nc2ccc(OC)cc12 (stereo unspecified),Potency,[7],"inconclusive: 14.7 µM [fluorescent, partial curve]"
CN(C)c1ccc(/C=C2\C(=O)Nc3ccccc32)cc1,Potency,[6],"inconclusive: 37.7 µM [inhibitor, partial curve, poor fit]"
C[C@H](Cc1ccc(O)c(O)c1)[C@@H](C)Cc1ccc(O)c(O)c1,Potency,[8],"inconclusive: 18.5 µM [falling, single point]"
same,Potency,[9],"inconclusive: 7.08 µM [activator, full curve, poor fit]"
same,Potency,[10],"inconclusive: 11.9 µM [inhibitor, partial curve]"
same,Potency,[11],"inconclusive: 4.78 µM [falling, partial curve, poor fit]"
same,Potency,[12],active: 13.1 µM
same,Potency,[13],"inconclusive: 16.5 µM [inhibitor, single point]"
same,Potency,[6],inactive
same,Potency,[14],active: 9.47 µM
CC1=NS(=O)(=O)c2cc(Cl)ccc2N1,Potency,[15],inactive
same,Potency,[13],inactive
COc1cc2nc(N3CCN(C(=O)C4CCCO4)CC3)nc(N)c2cc1OC (stereo unspecified),Potency,[8],inactive
COc1cc(C(O)CO)ccc1OS(=O)(=O)O (stereo unspecified),Potency,[8],inactive
same,Potency,[11],"inconclusive: 0.151 µM [activator, full curve, poor fit]"
CC(C)(C)NC[C@H](O)COc1nsnc1N1CCOCC1,Potency,[8],inactive
same,Potency,[11],"inconclusive: 42.6 µM [activator, single point]"
Nc1nc2ccc(OC(F)(F)F)cc2s1,Potency,[9],"inconclusive: 17.8 µM [activator, single point]"
same,activity change,[16],inconclusive: -32.7%
same,Potency,[13],"inconclusive: 11.7 µM [activator, single point]"
OC[C@H]1O[C@@H](n2cnc3c(NC4CCCCC4)ncnc32)[C@H](O)[C@@H]1O,Potency,[15],inactive
same,Potency,[9],inactive
same,Potency,[11],"inconclusive: 0.757 µM [activator, full curve, poor fit]"
CNC[C@H](O)c1ccc(O)c(O)c1,Potency,[8],"inconclusive: 23.3 µM [falling, single point]"
same,Potency,[11],"inconclusive: 33.8 µM [falling, single point]"
same,Potency,[14],"inconclusive: 21.2 µM [inhibitor, partial curve]"
same,Potency,[17],active: 10.6 µM
OC(CN1CCC(Cc2ccc(F)cc2)CC1)c1ccc(Cl)cc1 (stereo unspecified),Potency,[8],"inconclusive: 14.7 µM [falling, single point]"
same,Potency,[9],"inconclusive: 35.5 µM [activator, single point]"
same,Potency,[16],inactive
same,Potency,[11],inactive
same,Potency,[12],active: 2.94 µM
same,Potency,[13],active: 3.29 µM
NCCCS(=O)(=O)O,Potency,[9],"inconclusive: 5.01 µM [activator, full curve]"
same,Potency,[10],inactive
same,Potency,[11],"inconclusive: 0.012 µM [activator, full curve, poor fit]"
same,Potency,[12],"inconclusive: 0.0066 µM [inhibitor, full curve, poor fit]"
same,Potency,[14],"inconclusive: 13.4 µM [inhibitor, partial curve]"
O=c1cc(-c2ccc(O)cc2)oc2cc(O)cc(O)c12,Potency,[9],"inconclusive: 12.6 µM [activator, partial curve]"
same,activity change,[16],inconclusive: 50.2%
same,Potency,[11],"inconclusive: 47.8 µM [activator, partial curve, poor fit]"
same,Potency,[12],"inconclusive: 4.15 µM [activator, partial curve]"
same,Potency,[13],"inconclusive: 2.94 µM [activator, partial curve]"
COc1cc2c(cc1O)CC[C@@H]1[C@@H]2CC[C@]2(C)[C@@H](O)CC[C@@H]12,Potency,[8],"inconclusive: 5.21 µM [falling, partial curve]"
same,Potency,[11],"inconclusive: 7.57 µM [falling, full curve]"
O=C1NC(=O)C(c2ccccc2[N+](=O)[O-])=C1Nc1ccc(O)c(Cl)c1,Potency,[3],"inconclusive: 35.5 µM [inhibitor, partial curve]"
same,Potency,[4],"inconclusive: 126 µM [inhibitor, partial curve]"
same,Potency,[9],"inconclusive: 15.8 µM [activator, single point]"
same,Potency,[11],"inconclusive: 0.0953 µM [falling, partial curve, poor fit]"
same,Potency,[13],inactive
same,Potency,[18],active: 56.2 µM

# Some of the entries so far, with tabs:
structure (smiles)	measurement	setting	value
S=C(Nc1ccccc1)Nc1nccs1	Potency	[2]	active: 20 µM
CC1=NS(=O)(=O)c2cc(Cl)ccc2N1	Potency	[15]	inactive
NCCCS(=O)(=O)O	Potency	[9]	inconclusive: 5.01 µM [activator, full curve]
O=C1NC(=O)C(c2ccccc2[N+](=O)[O-])=C1Nc1ccc(O)c(Cl)c1	Potency	[9]	inconclusive: 15.8 µM [activator, single point]
same	Potency	[18]	active: 56.2 µM

# Reference: PubChem BioAssay (NCATS)
